Source: the supplement of paper PMC3334620
Over roughly 33,000 sequences, “E-score (-0.5 to 0.5)” has its median near -0.0034; the highest 2% begin near 0.25. This is one part of the list.

Molecular target: T1, Yap3 (UniProt P38749)
T1 sequence: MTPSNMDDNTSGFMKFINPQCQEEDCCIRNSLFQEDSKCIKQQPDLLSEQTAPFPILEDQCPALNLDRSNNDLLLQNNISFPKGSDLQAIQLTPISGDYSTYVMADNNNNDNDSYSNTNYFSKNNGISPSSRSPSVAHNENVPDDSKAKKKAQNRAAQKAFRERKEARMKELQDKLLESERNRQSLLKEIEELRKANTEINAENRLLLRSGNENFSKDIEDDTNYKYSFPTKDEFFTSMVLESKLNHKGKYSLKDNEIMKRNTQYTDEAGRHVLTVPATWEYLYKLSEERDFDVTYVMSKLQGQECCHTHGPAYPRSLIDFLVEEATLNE
Assay: PBM E-score (8-mer binding enrichment) (E-score (-0.5 to 0.5)); higher = stronger / more preferred TF binding
Conditions: protein concentration: 100 nM; construct: GST-full length
Procedure, shortened: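 Universal all-10-mer Agilent arrays, fresh or stripped once, were converted to double-stranded form by primer extension. GST-tagged yeast transcription factors from PURExpress in vitro transcription/translation, full-length or DNA-binding domain only, were applied at about 100-200 nM and detected with fluorescent anti-GST. After masliner normalisation, the Universal PBM Analysis Suite scored each ungapped eight-base word together with its reverse complement by E-score.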

| Sequence | PBM E-score |
| --- | --- |
| CATTACAG | 0.182 |
| CCCCGGCA | -0.272 |
| ATAGGTGC | -0.062 |
| TCGTAGAA | -0.0144 |
| CATGACGG | -0.0576 |
| AGCACCTA | -0.129 |
| CGCCATCA | -0.148 |
| GGGGTGTA | -0.195 |
| CGGGTTAA | -0.0948 |
| CGGCTACA | -0.0247 |
| GCTTTTCA | 0.0397 |
| AGGCACTC | -0.187 |
| CGTCACGA | 0.0412 |
| CTCTCCCC | -0.22 |
| GTCACGTA | -0.0646 |
| CTCGCGAG | 0.0456 |
| AATGTTGT | 0.128 |
| AATAGATA | 0.267 |
| CCGGCGAA | 0.11 |
| CGGTCCCA | -0.277 |
| AATCCGGG | -0.242 |
| ACCCTGTC | -0.164 |
| AGTAAGTA | 0.221 |
| CACGCCGA | -0.212 |
| GGGCACCA | -0.181 |

| Sequence | PBM E-score |
| --- | --- |
| CGGTCGCA | -0.1 |
| GTTCCACA | -0.107 |
| ATGGGTGA | -0.112 |
| CCGACACG | -0.151 |
| CTCTCTAC | 0.111 |
| ATCGAGCA | -0.0793 |
| ATGGTCTC | -0.0905 |
| GGAGCCAC | -0.164 |
| ACTATTAT | 0.123 |
| CCGCTGCG | -0.214 |
| ACTGGTTC | 0.133 |
| ATACGTAA | 0.266 |
| CCAACCAG | -0.152 |
| CGCAGGCA | -0.162 |
| CAAATGGG | 0.0603 |
| GAAGCTAA | -0.136 |
| GATCTGGA | -0.0302 |
| AGCTCGAT | 0.128 |
| ACAGTATA | 0.156 |
| GCTACTCC | 0.0046 |
| CTGTAAAA | 0.17 |
| TCTGGCAA | 0.0515 |
| CGGCGAAG | -0.0772 |
| GTATTGAA | 0.229 |
| TATACCAA | 0.203 |

| Sequence | PBM E-score |
| --- | --- |
| AGTTCTCA | 0.09 |
| AAAAAATA | 0.287 |
| AGGTTATG | 0.0516 |
| AACAAATC | 0.0915 |
| GTCTACCA | -0.131 |
| TGTCTCAA | -0.0116 |
| CGCGCGTA | -0.00409 |
| GCTATCAA | 0.142 |
| GGCATGAA | 0.0597 |
| GATTAACC | -0.045 |
| AATGCAAA | 0.262 |
| AGAACGCC | -0.109 |
| AATGTAAT | 0.253 |
| CCGCGTCC | 0.0306 |
| ATTCTTAG | 0.085 |
| ACAAACTA | 0.122 |
| GGACGTCA | -0.0403 |
| GGCATCTA | -0.0241 |
| AATTCTCG | 0.13 |
| CCCCCGTC | -0.349 |
| ACACCCTG | -0.133 |
| AACGTCTG | -0.0256 |
| GATTTTCA | 0.175 |
| AGACAGTA | 0.121 |
| AGGGGTAG | -0.236 |

| Sequence | PBM E-score |
| --- | --- |
| GAAAGCTA | -0.0996 |
| ACTCAACT | 0.134 |
| TCCACAAA | 0.058 |
| AATCCTAA | 0.0112 |
| AATATCAT | 0.277 |
| CTAGCAAA | 0.0766 |
| AAGGAGAT | 0.0143 |
| ACGAGACT | -0.199 |
| ACCCCTCC | -0.205 |
| AAGCCACT | -0.0481 |
| AATTGGGC | 0.0215 |
| CCTAGTGC | -0.111 |
| AAGCAGAA | 0.147 |
| ACCCTACA | -0.0174 |
| CATTCGAC | 0.0059 |
| CCGCAGGC | -0.126 |
| CGTTCCCC | -0.164 |
| TGAATGCA | 0.103 |
| CTACGGCC | -0.13 |
| CGGGGCAC | -0.299 |
| CCGGAATC | 0.00881 |
| GGAATCCA | -0.119 |
| ACGATTTA | 0.312 |
| ACGTATGA | 0.15 |
| GGTAACGA | 0.0757 |

| Sequence | PBM E-score |
| --- | --- |
| AATCTTGG | 0.00135 |
| CGGCCGTA | -0.0185 |
| CTCTAGCA | -0.227 |
| AAAAAAAA | 0.244 |
| ACTGTAGC | -0.116 |
| AGGAAGGG | -0.27 |
| CAGTGAGC | 0.00937 |
| TCCTCCCA | -0.189 |
| CCGCCAGG | -0.215 |
| CCACGGGA | -0.166 |
| GATTATCC | 0.0968 |
| CACCCACA | -0.0926 |
| TAGACCCA | 0.0172 |
| AGGTACAC | -0.0457 |
| ATAGCATA | 0.164 |
| GCTACTAA | 0.138 |
| AACGCGGA | 0.0662 |
| GCCGGGGA | -0.238 |
| GGAGCCAA | -0.151 |
| CGCCCCCA | -0.171 |
| ATTAGGGG | 0.00966 |
| TGCGACAA | -0.00108 |
| GAAGAAGC | -0.11 |
| ATGGTACA | 0.0415 |
| AGGGGTTG | -0.134 |

| Sequence | PBM E-score |
| --- | --- |
| ACCCGAAC | -0.0278 |
| GGAACCGA | -0.144 |
| CCCTCGTA | -0.0833 |
| AGGGCGTG | -0.125 |
| CGCCCGGC | -0.25 |
| AGTATATG | 0.157 |
| CATTGACA | -0.195 |
| GCTGAACC | -0.209 |
| AAGATTCC | 0.0621 |
| ATGAAATC | 0.0892 |
| GGAGTACC | -0.122 |
| ACACCCGA | 0.115 |
| ACCACTGA | -0.101 |
| ATATAGTC | 0.182 |
| CCAATGAA | -0.193 |
| CCCCCTAC | -0.25 |
| CGTGTATC | 0.0353 |
| CATCACAG | 0.0196 |
| CCCGGCGA | -0.0387 |
| CCCCTAAC | 0.0203 |
| GAGCAAAC | 0.0386 |
| AGGACTAT | -0.072 |
| GAAGCGGA | 0.057 |
| ACGCGAGA | 0.128 |
| GCAAACGA | 0.103 |

| Sequence | PBM E-score |
| --- | --- |
| CTATCTTC | 0.193 |
| CCAACGCG | 0.00473 |
| AACGCCAT | -0.0723 |
| CACGAAGG | -0.133 |
| AACGACGT | 0.0632 |
| CTGCATGA | -0.19 |
| ATGACCAT | 0.081 |
| CATGGAAG | -0.0349 |
| ATTACATG | 0.248 |
| ATGACGGG | -0.0973 |
| ACTCTGTA | -0.088 |
| AAGCAATC | 0.0764 |
| AAAGTAGC | -0.0458 |
| ATAGGTTC | 0.104 |
| AAGTTTTA | 0.167 |
| GTTCGAAA | 0.213 |
| CGTTATCA | 0.0539 |
| CTTATGAA | 0.0398 |
| TACAGTAA | 0.183 |
| AACCCCCT | -0.382 |
| TCCCGGAA | -0.011 |
| ATTTTAAC | 0.149 |
| ATTCACCC | 0.0908 |
| AAGACAGC | -0.0991 |
| AGAATCCT | -0.169 |

| Sequence | PBM E-score |
| --- | --- |
| TAGTGTCA | 0.0537 |
| AGCTTCAA | 0.0127 |
| AATAGGAT | 0.246 |
| CGCTCTCA | -0.121 |
| TACGTTGA | 0.18 |
| CGAGAGAA | 0.00535 |
| CTCGTTTC | 0.0789 |
| CGAGGCAC | -0.102 |
| CCGTAATA | 0.201 |
| GGAATTAC | 0.235 |
| ACTCGTTG | -0.0484 |
| AACATGAA | 0.0757 |
| TGTTCGAA | 0.015 |
| AGAACTCC | -0.135 |
| GAGGTTGC | -0.266 |
| GTGGGGTA | 0.0417 |
| CCCTTCGA | -0.174 |
| GAAATCGA | 0.163 |
| AGGGGCCG | -0.338 |
| ATGCATTG | 0.0448 |
| CCGATAAA | 0.119 |
| CACAGACA | 0.00063 |
| GGGTGATA | 0.0239 |
| CTCCTAAG | -0.248 |
| ACTACACA | 0.258 |

| Sequence | PBM E-score |
| --- | --- |
| ATGAAAAC | 0.164 |
| TGACAGAA | 0.184 |
| AACAGGTC | -0.0988 |
| CGCGATAA | 0.168 |
| CAGATGGA | 0.127 |
| GATATACA | 0.187 |
| ACTCCGTG | -0.111 |
| AGAGTCCG | -0.253 |
| ACCTTGTC | -0.159 |
| AGAGTTCC | -0.154 |
| ATTCCATG | 0.0601 |
| CGAGGTCC | -0.246 |
| AAACCTCT | -0.0453 |
| GACCATCC | -0.225 |
| AAACTGGG | 0.0379 |
| CTATGCCC | -0.112 |
| ATTACGCA | 0.233 |
| ATTCTTCC | 0.121 |
| GCACACCA | -0.111 |
